According to the supplement of paper PMC11542785:
Where a name gives a salt, the structure may show the parent alone. The list shows a part of the results. Most values come without repeats; read them as rough.

Tested on: Drosophila melanogaster DPAGT1 (Alg7) RNAi eye model
Assay: eye size Z-score vs DMSO-treated DPAGT1 model flies; higher = larger eye (suppression of DPAGT1 phenotype)
Conditions: 5 uM

Row | Structure (SMILES) | eye size Z-score | eye size Z-score (female)
1 | O=P(O)(O)C(O)(Cn1ccnc1)P(=O)(O)O [Zoledronic acid hydrate] | 0.66 | 
2 | CC#CCn1c(N2CCC[C@@H](N)C2)nc2c1c(=O)n(Cc1nc(C)c3ccccc3n1)c(=O)n2C [Linagliptin] | 0.74 | 
3 | CCN(CC)CCOCCOC(=O)C1(c2ccccc2)CCCC1 [Carbetapentane citrate] | 0.51 | 
4 | CCN(CC)C(=O)Nc1ccc(OCC(O)CNC(C)(C)C)c(C(C)=O)c1 (stereo unspecified) [Celiprolol hydrochloride] |  | 0.1
5 | CCCCC1C(=O)N(c2ccccc2)N(c2ccc(O)cc2)C1=O (stereo unspecified) [Oxyphenbutazone] | 0.3 | 
6 | N[C@H]1CONC1=O [(S,-) Cycloserine] | -0.39 | 
7 | CC(=O)Nc1ccc(OC(=O)c2ccccc2O)cc1 [Acetaminosalol] | -0.83 | 
8 | COc1cc2nc(N3CCN(C(=O)C4COc5ccccc5O4)CC3)nc(N)c2cc1OC (stereo unspecified) [Doxazosin mesylate] | 0.81 | 
9 | CCCOc1ccccc1-c1nc2[nH]nnc2c(=O)[nH]1 [Zaprinast] | 0.28 | 
10 | CCC[C@@H]1C[C@@H](C(=O)N[C@@H]([C@H]2O[C@H](SC)[C@H](OP(=O)(O)O)[C@@H](O)[C@H]2O)[C@H](C)Cl)N(C)C1 [Clindamycin Phosphate] | 1.42 | 
11 | CCCCCCNC(=O)n1cc(F)c(=O)[nH]c1=O [Carmofur] | 0.77 | 
12 | Nc1nc(=O)n([C@@H]2CS[C@H](CO)O2)cc1F [(-) Emtricitabine] | -0.51 | 
13 | COc1ccc(Cl)cc1C(=O)NCCc1ccc(S(=O)(=O)NC(=O)NC2CCCCC2)cc1 [Glibenclamide] | -0.28 | 
14 | CC(C(O)c1ccc(O)cc1)N1CCC(Cc2ccccc2)CC1 (stereo unspecified) [Ifenprodil tartrate] | 0.28 | 
15 | CC(C)[C@H](N)C(=O)OCCOCn1cnc2c(=O)nc(N)[nH]c21 [Valacyclovir hydrochloride] | 1.72 | 
16 | CN1CCN2c3ncccc3Cc3ccccc3C2C1 (stereo unspecified) [Mirtazapine] | 0.67 | 
17 | COC(=O)N/N=C/c1c[n+]([O-])c2ccccc2[n+]1[O-] [Carbadox] | 0.99 | 
18 | CN(C(=O)CN(CCO)CC(=O)N(C)C(C)(C)Cc1ccccc1)C(C)(C)Cc1ccccc1 [Oxethazaine] | 0.76 | 
19 | Cc1cc(C)nc(NS(=O)(=O)c2ccc(N)cc2)n1 [Sulfamethazine sodium salt] | 0.78 | 
20 | CC1(C)O[C@@H]2C[C@H]3[C@@H]4C[C@H](F)C5=CC(=O)C=C[C@]5(C)[C@@]4(F)[C@@H](O)C[C@]3(C)[C@]2(C(=O)CO)O1 [Fluocinolone acetonide] | -0.99 | 
21 | COc1cc(NS(=O)(=O)c2ccc(N)cc2)ncn1 [Sulfamonomethoxine] | 0.16 | 

Taken from above.
eye size Z-score with `CC(C(O)c1ccc(O)cc1)N1CCC(Cc2ccccc2)CC1` (stereo unspecified) [Ifenprodil tartrate] reads 0.28
eye size Z-score with `COc1cc(NS(=O)(=O)c2ccc(N)cc2)ncn1` [Sulfamonomethoxine] reads 0.16
